Data on 42 sequences can be found in paper PMC7819943, “Rice protein-binding microarrays: a tool to detect cis-acting elements near promoter regions in rice”.

Amino acid sequences for entries named in this document (tags omitted).
UniProt Q0JBA9, entry or part of it: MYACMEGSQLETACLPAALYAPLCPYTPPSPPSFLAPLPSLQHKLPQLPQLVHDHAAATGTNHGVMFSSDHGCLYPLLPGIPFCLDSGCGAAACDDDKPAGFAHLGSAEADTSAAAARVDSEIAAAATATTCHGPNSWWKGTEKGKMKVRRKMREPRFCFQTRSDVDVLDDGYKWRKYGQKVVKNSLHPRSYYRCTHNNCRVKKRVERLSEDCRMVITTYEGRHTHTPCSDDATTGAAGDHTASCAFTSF

The other results are listed elsewhere or left out.

The assay concerns the target OsWRKY34 (Oryza sativa, UniProt Q0JBA9 1-250). In words: protein-binding microarray (RPBM); PBS, 2% BSA, 51.3 ng/ul salmon testes DNA, 50 uM zinc acetate, 200 nM TF, 25 C, 1 h; high values mean tight binding. Particulars: protein: recombinant; tags: N-terminal polyhistidine and DsRed monomer fusion (pET32a); label: CyDye5-dUTP incorporated in the synthesized complementary strand; 3' TTTTT single-stranded linker to array surface; dsDNA, one strand shown. In short, it runs like this: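 The binding signal is fluorescence intensity per array feature (arbitrary units). Readings came from an Axon 4000B scanner after a washed, 2% BSA-blocked, double-stranded custom Agilent array had been incubated for 1 h at 25 °C with 200 nM protein and 50 µM zinc acetate. The protein was a Ni–NTA-purified transcription factor fused N-terminally to polyhistidine and DsRed, expressed in E. coli BL21-CodonPlus.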
For the sequence “TCTGCCATCGTTACCAAGTTGTCACTTTCTTTTGTCGATTCGGAGTCACCTAGTGCAG”, the binding signal is 9520 fluorescence intensity (a.u.).

With “ATTTTTTTTATGGTGCATATGTTACATAGCTTCTCAACATCGGAGTCACCTAGTGCAG”, the binding signal is 8870 fluorescence intensity (a.u.).

Consider “GCCGATTGTCCCTCACGCCAAACCATCACGTGTGCGCTTCCGGAGTCACCTAGTGCAG”, for which the binding signal is 10600 fluorescence intensity (a.u.).

In the case of “CGGTGTTCCGCCGTTGACTTGACTCCGGTAGTCGGATGATCGGAGTCACCTAGTGCAG”, the binding signal is 8890 fluorescence intensity (a.u.).

With “ACCTCTTCTTCTCTTTGTCCCCTTCTCCATTTCCAAATTCCGGAGTCACCTAGTGCAG”, the binding signal is 9460 fluorescence intensity (a.u.).

For “TCCCCAGTTATTAATTCCGCATTCCAGTTGACCAGTTGTACGGAGTCACCTAGTGCAG”, the binding signal is 9020 fluorescence intensity (a.u.).

Consider “GTACCCAATCGCGTCCACGTACTATTCCACTCTCTAACCTCGGAGTCACCTAGTGCAG”, for which the binding signal was 10300 fluorescence intensity (a.u.).

Turning to “CCCTGGTATCCGCGCCCAATGTTTGACCGTCCGTTTTATTCGGAGTCACCTAGTGCAG”, the binding signal is 12600 fluorescence intensity (a.u.).

Turning to “ACTTTCAACCTCCTTGAAATGTTACTCATATGTTTGGGCGCGGAGTCACCTAGTGCAG”, the binding signal was 8920 fluorescence intensity (a.u.).

As to “CGTTCTCCGTTTTGGTTTTTTATCGTAGTTCCGTTCTGGGCGGAGTCACCTAGTGCAG”, the binding signal was 9870 fluorescence intensity (a.u.).

For the sequence “CCTTATTTTTAATTCTGAATTTTAGCTATTTTATATTGTACGGAGTCACCTAGTGCAG”, the binding signal was 8080 fluorescence intensity (a.u.).

Take “GATTCCTTCCTAGCTGTCACGTCATAGACTTCCCGAAGACCGGAGTCACCTAGTGCAG”: the binding signal was 8540 fluorescence intensity (a.u.).

In the case of “CTTTGACCCTGTTGACTGGCTCCCCACTTATCAACCACACCGGAGTCACCTAGTGCAG”, the binding signal was 11000 fluorescence intensity (a.u.).

Take “TGTTTTCTACTTTGTTCATAGGGGTGAGGGTACGTTCGTTCGGAGTCACCTAGTGCAG”: the binding signal was 10600 fluorescence intensity (a.u.).

Regarding “TTTCCTTTTTCCTACTATCATTATATTCCATTCTATTTTTCGGAGTCACCTAGTGCAG”, the binding signal is 11000 fluorescence intensity (a.u.).

As to “CGCCCTAACTTTGATCATCTGTCTTATTTAAATAAATTTTCGGAGTCACCTAGTGCAG”, the binding signal is 10100 fluorescence intensity (a.u.).

Regarding “GGCTGGATGGTGCTCTCCTAAAATTTTGCTTCTTTTACTGCGGAGTCACCTAGTGCAG”, the binding signal is 9930 fluorescence intensity (a.u.).

As for “TGGGAGCAATGAATCTGCCACTGTCACCCCACCATTTTTTCGGAGTCACCTAGTGCAG”, the binding signal is 8970 fluorescence intensity (a.u.).

On to “TTATTTCTGCCATTGCAGTTTCGCCGCTATATCGGTTTGTCGGAGTCACCTAGTGCAG”, for which the binding signal is 8170 fluorescence intensity (a.u.).

For the sequence “TTTGTATAGTTGGGTGTGAAGAATGTCCGGTTTTGTGGTTCGGAGTCACCTAGTGCAG”, the binding signal is 8060 fluorescence intensity (a.u.).

As to “ACCCTCTGAGATCACCCTGACCGATCTCACCCGTCACCGACGGAGTCACCTAGTGCAG”, the binding signal is 10100 fluorescence intensity (a.u.).

On to “CATTTCTTTAACTTCGTCTTGTGTAGCTTCAACAGTTTGCCGGAGTCACCTAGTGCAG”, for which the binding signal is 11500 fluorescence intensity (a.u.).

Turning to “ACATTTCTTTGTGATTGGATCGCCACCCTGGTGCCACGTGCGGAGTCACCTAGTGCAG”, the binding signal is 9060 fluorescence intensity (a.u.).

For the sequence “GAGAGGAAGAGGGGAAGGGCATGTGGGTCTCACATTTTTACGGAGTCACCTAGTGCAG”, the binding signal is 10800 fluorescence intensity (a.u.).

Consider “CGGAAACCCAACCGCCCGTCCGCCAGCCCAGCCGCTGTGACGGAGTCACCTAGTGCAG”, for which the binding signal was 10500 fluorescence intensity (a.u.).

“ATTCCGCGCGCACCACACTGCCGGTCTCGTCGACATCGATCGGAGTCACCTAGTGCAG”: the binding signal is 11000 fluorescence intensity (a.u.).

Consider “ACCGTGTTGATAGAAATTTGTCATAGTCTCACATATTTTCCGGAGTCACCTAGTGCAG”, for which the binding signal is 10000 fluorescence intensity (a.u.).

Take “TTGTCTTCTCTGCATCCTTTCCTTGCCGCCGGCCAATTTACGGAGTCACCTAGTGCAG”: the binding signal was 8880 fluorescence intensity (a.u.).

Take “CCCCTAGCACCCTCCTCCCACCTTGGCCACCCAGTTTACACGGAGTCACCTAGTGCAG”: the binding signal is 8070 fluorescence intensity (a.u.).

Take “AGTTTGCACAAAACCTGGCTTCTGTCTGTGGTCTATATAACGGAGTCACCTAGTGCAG”: the binding signal is 9270 fluorescence intensity (a.u.).

In the case of “ATTAATTTTTTGCCAGTGGATCCATATGTTATAGACACATCGGAGTCACCTAGTGCAG”, the binding signal was 8250 fluorescence intensity (a.u.).

For the sequence “GTGCTTGTCCTGCCTGCTTCGCTGACCTGTATAGCTTGACCGGAGTCACCTAGTGCAG”, the binding signal is 9260 fluorescence intensity (a.u.).

As to “CCGTTCTGACGTCGCCGTCGCCGCCGCAGATGACATTATTCGGAGTCACCTAGTGCAG”, the binding signal was 8420 fluorescence intensity (a.u.).

As for “AGGAGCATATTTATTTGGTATTTCAAGGTCGTTTTTTTTGCGGAGTCACCTAGTGCAG”, the binding signal is 8240 fluorescence intensity (a.u.).

Turning to “CCGACCCAGTCACGTCCTCGTCTCGTCTCCGTTTCGTGTTCGGAGTCACCTAGTGCAG”, the binding signal is 10200 fluorescence intensity (a.u.).

Regarding “GCGTCGAGGGCGGGCGGCAGCGCTTGGTGGCGGTGGGGCGCGGAGTCACCTAGTGCAG”, the binding signal was 12400 fluorescence intensity (a.u.).

“CTCGTTTGAACAATCTCGCGCCCAAAGTCAGACCATGCATCGGAGTCACCTAGTGCAG”: the binding signal is 10100 fluorescence intensity (a.u.).

For the sequence “AAACCCACACACACACAACACATCTCGCCTCCTCCCAAAACGGAGTCACCTAGTGCAG”, the binding signal is 8240 fluorescence intensity (a.u.).

“GCCCAATCCGCCTGTCTCTCTCTCGTTCCCCTCCAATCCACGGAGTCACCTAGTGCAG”: the binding signal is 8900 fluorescence intensity (a.u.).

In the case of “TAGCGTTTTGTGGATATGGGGTGTGTTTGGTTGCTCGTATCGGAGTCACCTAGTGCAG”, the binding signal is 9960 fluorescence intensity (a.u.).

Turning to “TATTCACGGCTGCACTTATTTTGGGACGGAGGTAGTATTTCGGAGTCACCTAGTGCAG”, the binding signal is 8070 fluorescence intensity (a.u.).

Take “GGTCTTGTGGATGGTGGATATGCAGGAGGCACTGCAGAGGCGGAGTCACCTAGTGCAG”: the binding signal was 8090 fluorescence intensity (a.u.).
